Results deposited as PubChem BioAssay AID743121 (NCATS, 2013).

Test: 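Partners whose loss is lethal together with topoisomerase I blockade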 (primary screen)
Cell system: MDA-MB-231 cells, a human breast cancer line
Reagents: single siRNA against human genes, 20 nM siRNA (0.8 pmol per well)
Timing: 120 h (drug added 48 h after transfection, read 72 h later)
Challenge: camptothecin 20 nM (about EC30) for 72 h; vehicle 0.1% DMSO in parallel plates
Measured: 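CellTiter-Glo ATP signal, scaled to control siRNA as percent viability; sensitisation given as log2 of untreated divided by camptothecin-treated viability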
Direction: log2 vehicle/camptothecin viability: higher = stronger sensitisation to camptothecin; viability with camptothecin and viability without drug: higher = more viable cells
Rule for the call: 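Each gene scored by redundant siRNA activity (RSA) over its individual siRNA ratios; a gene is called active at p < 0.001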
Shown is an unselected part of about 26,000 reagents. 167 of them (0.63%) were called active. 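Calls are per gene from RSA p-values that are not deposited; an individual active-marked siRNA can sensitise only weakly.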

gene knocked down | PubChem SID | log2 vehicle/camptothecin viability | viability with camptothecin (% of control) | viability without drug (% of control) | Call
CDC7 | SID164396838 | -0.355 | 104 | 81.5 | inactive
CDC7 | SID164396840 | 0.511 | 61.4 | 87.5 | inactive
CDC7 | SID164396841 | -0.0188 | 70.3 | 69.4 | inactive
KCNK12 | SID164490711 | -0.0996 | 88.9 | 83 | inactive
KCNK12 | SID164490712 | -0.314 | 48.5 | 39 | inactive
KCNK12 | SID164490713 | 0.206 | 90.5 | 104 | inactive
KCNK12 | SID164490714 | 0.491 | 32.3 | 45.3 | inactive
ITPKB | SID164372143 | 0.296 | 54.1 | 66.5 | inactive
ITPKB | SID164372144 | 0.658 | 51.6 | 81.4 | inactive
ITPKB | SID164372145 | -0.00841 | 72.1 | 71.7 | inactive
ITPKB | SID164372148 | -0.00846 | 95.3 | 94.7 | inactive
CAMK2N1 | SID164484839 | -0.141 | 104 | 94.3 | inactive
CAMK2N1 | SID164484840 | -0.183 | 127 | 112 | inactive
CAMK2N1 | SID164484841 | 0.34 | 70.9 | 89.8 | inactive
CAMK2N1 | SID164484843 | -0.314 | 40.6 | 32.7 | inactive
KLK7 | SID164383087 | -0.263 | 63.6 | 53 | inactive
KLK7 | SID164383088 | -0.00553 | 74.8 | 74.5 | inactive
KLK7 | SID164383091 | -0.0639 | 101 | 96.2 | inactive
KLK7 | SID164383092 | -0.443 | 49 | 36 | inactive
OPHN1 | SID164378903 | -0.0928 | 58.1 | 54.5 | inactive
OPHN1 | SID164378904 | 0.0358 | 90.9 | 93.2 | inactive
TAF10 | SID164390757 | 0.178 | 52.7 | 59.6 | inactive
TAF10 | SID164390760 | -0.234 | 83.1 | 70.6 | inactive
TAF10 | SID164390761 | -0.453 | 101 | 73.9 | inactive
PPM1A | SID164382004 | 0.0586 | 71.8 | 74.7 | inactive
PPM1A | SID164382006 | -0.228 | 83.2 | 71.1 | inactive
PPM1A | SID164382007 | -0.0191 | 93.9 | 92.7 | inactive
PPM1A | SID164382009 | -0.344 | 68.9 | 54.3 | inactive
